Measured values from patent US5997843A, “Radiometal complexes that localise in hypoxic tissue” (priority 1993, dated 1999).

Experiment: Zinc in ammonium chloride solution reduction test
Conditions: change of HPLC profile of the ^99m Tc complex after 15 minutes

Row | SMILES | Zinc/ammonium chloride reduction test result
1 | CC(=NO)C(C)(C)NCCCCCNC(C)(C)C(Cn1ccnc1[N+](=O)[O-])=NO [Compound IV, 3,3,11,11-tetramethyl-1-(2-nitro-1H-imidazo-1-yl)-4,10-diazatridecan-2,12-dione dioxime] | appears inert to Zn/NH3
2 | CC(=NO)C(C)(C)NCCCCNC(C)(C)C(C)=NO [Compound I, 4,9-diaza-3,3,10,10-tetramethyldodecan-2,11',-dione dioxime] | positive
3 | CC(=NO)C(C)(C)NCCCCNC(C)(C)C(Cn1ccnc1[N+](=O)[O-])=NO [Compound II] | positive
4 | CC(=NO)C(C)(C)NCCCCCNC(C)(C)C(C)=NO [Compound III, 4,10-diaza-3,3,11,11-tetramethyltridecan-2,12-dione dioxime] | negative
